Test results as given in the supplement of paper PMC11438910.
This is one part of the list. Most of these values are background signal.

Key:
Experiment in all cases: fluorescence intensity of antibody binding to polysaccharide-coupled beads; higher = stronger binding
[1] = molecular target: pneumococcal polysaccharide Pn31
Method: (§1)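 Recombinant rhesus-murine chimeric IgG1 antibodies were tested against antigen-coupled MagPlex beads in a 96-plex Luminex direct immunoassay (dLIA). The beads carried pneumococcal capsular polysaccharides of 93 serotypes plus C-polysaccharides. Antibody was added at 0.1–12,500 ng/mL for 1 h, then PE anti-mouse IgG, and net MFI was read on a Bio-Plex 3D. Only the rhesus variable regions are printed; constant regions are murine IgG1/kappa/lambda, and the signal peptide is MGWSCIILFLVATATGVHS.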

[2] = molecular target: pneumococcal polysaccharide Pn32A
Method: as §1

[3] = molecular target: pneumococcal polysaccharide Pn32F
Method: as §1

[4] = molecular target: pneumococcal polysaccharide Pn33A
Method: as §1

[5] = molecular target: pneumococcal polysaccharide Pn33B
Method: as §1

[6] = molecular target: pneumococcal polysaccharide Pn33C
Method: as §1

[7] = molecular target: pneumococcal polysaccharide Pn33D
Method: as §1

[8] = molecular target: pneumococcal polysaccharide Pn33F
Method: as §1

[9] = molecular target: pneumococcal polysaccharide Pn34
Method: as §1

[10] = molecular target: pneumococcal polysaccharide Pn35A
Method: as §1

[11] = molecular target: pneumococcal polysaccharide Pn35B
Method: as §1

[12] = molecular target: pneumococcal polysaccharide Pn35C
Method: as §1

[13] = molecular target: pneumococcal polysaccharide Pn35F
Method: as §1

[14] = molecular target: pneumococcal polysaccharide Pn36
Method: as §1

[15] = molecular target: pneumococcal polysaccharide Pn37
Method: as §1

[16] = molecular target: pneumococcal polysaccharide Pn38
Method: as §1

[17] = molecular target: pneumococcal polysaccharide Pn39
Method: as §1

[18] = molecular target: pneumococcal polysaccharide Pn4
Method: as §1

[19] = molecular target: pneumococcal polysaccharide Pn40
Method: as §1

[20] = molecular target: pneumococcal polysaccharide Pn41A
Method: as §1

[21] = molecular target: pneumococcal polysaccharide Pn41F
Method: as §1

[22] = molecular target: pneumococcal polysaccharide Pn42
Method: as §1

[23] = molecular target: pneumococcal polysaccharide Pn43
Method: as §1

[24] = antibody concentration 81.7561 ng/mL
[25] = antibody concentration 437.17 ng/mL
[26] = antibody concentration 2337.65 ng/mL
[27] = antibody concentration 12500 ng/mL
[28] = antibody concentration 0.1 ng/mL
[29] = antibody concentration 0.534724 ng/mL
[30] = antibody concentration 2.8593 ng/mL
[31] = antibody concentration 15.2894 ng/mL

B1: 4-99.4 (protein)
chain 1: QVQLQESGPGLVKPSETLSLTCAVSGYSISSAYFWGWIRQPPGKGLEYIGYISGEGGKSYYNPSLMSRVTISKDTSKNQFSLKLNTVTAADTAVYYCARRAILVGFDLWGQGVLVTVSS
chain 2: QAAPTQPPSVSGSPGQSVTISCTGSNSDIGYYNAVSWYQQHPGKAPKLMIYEVSKRPSGVSDRLTGSKSGNTASLTISGLQAEDEADYYCSSYAGSNTYIFGTGTRLTVL
fluorescence intensity [1, 24]: 14 MFI
fluorescence intensity [1, 25]: 15.5 MFI
fluorescence intensity [1, 26]: 16.5 MFI
fluorescence intensity [1, 27]: 65 MFI
fluorescence intensity [2, 28]: 17.5 MFI
fluorescence intensity [2, 29]: 18 MFI
fluorescence intensity [2, 30]: 17.5 MFI
fluorescence intensity [2, 31]: 19 MFI
fluorescence intensity [2, 24]: 18.5 MFI
fluorescence intensity [2, 25]: 19 MFI
fluorescence intensity [2, 26]: 19.5 MFI
fluorescence intensity [2, 27]: 37 MFI
fluorescence intensity [3, 28]: 29 MFI
fluorescence intensity [3, 29]: 29 MFI
fluorescence intensity [3, 30]: 28.5 MFI
fluorescence intensity [3, 31]: 28 MFI
fluorescence intensity [3, 24]: 28.8 MFI
fluorescence intensity [3, 25]: 31.5 MFI
fluorescence intensity [3, 26]: 34.5 MFI
fluorescence intensity [3, 27]: 64.8 MFI
fluorescence intensity [4, 28]: 17.5 MFI
fluorescence intensity [4, 29]: 20 MFI
fluorescence intensity [4, 30]: 17 MFI
fluorescence intensity [4, 31]: 19.8 MFI
fluorescence intensity [4, 24]: 18 MFI
fluorescence intensity [4, 25]: 20 MFI
fluorescence intensity [4, 26]: 32 MFI
fluorescence intensity [4, 27]: 194 MFI
fluorescence intensity [5, 28]: 17 MFI
fluorescence intensity [5, 29]: 18.5 MFI
fluorescence intensity [5, 30]: 17.5 MFI
fluorescence intensity [5, 31]: 17.5 MFI
fluorescence intensity [5, 24]: 18.5 MFI
fluorescence intensity [5, 25]: 17.8 MFI
fluorescence intensity [5, 26]: 19 MFI
fluorescence intensity [5, 27]: 22.5 MFI
fluorescence intensity [6, 28]: 20 MFI
fluorescence intensity [6, 29]: 18.5 MFI
fluorescence intensity [6, 30]: 19 MFI
fluorescence intensity [6, 31]: 19.5 MFI
fluorescence intensity [6, 24]: 19.5 MFI
fluorescence intensity [6, 25]: 20 MFI
fluorescence intensity [6, 26]: 19.8 MFI
fluorescence intensity [6, 27]: 36 MFI
fluorescence intensity [7, 28]: 16.8 MFI
fluorescence intensity [7, 29]: 16.8 MFI
fluorescence intensity [7, 30]: 16.5 MFI
fluorescence intensity [7, 31]: 15.5 MFI
fluorescence intensity [7, 24]: 15 MFI
fluorescence intensity [7, 25]: 16 MFI
fluorescence intensity [7, 26]: 17 MFI
fluorescence intensity [7, 27]: 23 MFI
fluorescence intensity [8, 28]: 13 MFI
fluorescence intensity [8, 29]: 13.8 MFI
fluorescence intensity [8, 30]: 13 MFI
fluorescence intensity [8, 31]: 15 MFI
fluorescence intensity [8, 24]: 13 MFI
fluorescence intensity [8, 25]: 15 MFI
fluorescence intensity [8, 26]: 18.5 MFI
fluorescence intensity [8, 27]: 91 MFI
fluorescence intensity [9, 28]: 12.5 MFI
fluorescence intensity [9, 29]: 15 MFI
fluorescence intensity [9, 30]: 15 MFI
fluorescence intensity [9, 31]: 15 MFI
fluorescence intensity [9, 24]: 15.5 MFI
fluorescence intensity [9, 25]: 15 MFI
fluorescence intensity [9, 26]: 15.5 MFI
fluorescence intensity [9, 27]: 19.8 MFI
fluorescence intensity [10, 28]: 18.2 MFI
fluorescence intensity [10, 29]: 17.5 MFI
fluorescence intensity [10, 30]: 18 MFI
fluorescence intensity [10, 31]: 17.8 MFI
fluorescence intensity [10, 24]: 17 MFI
fluorescence intensity [10, 25]: 17 MFI
fluorescence intensity [10, 26]: 19.5 MFI
fluorescence intensity [10, 27]: 48.5 MFI
fluorescence intensity [11, 28]: 19.2 MFI
fluorescence intensity [11, 29]: 19 MFI
fluorescence intensity [11, 30]: 18 MFI
fluorescence intensity [11, 31]: 17.8 MFI
fluorescence intensity [11, 24]: 19.2 MFI
fluorescence intensity [11, 25]: 19.5 MFI
fluorescence intensity [11, 26]: 20 MFI
fluorescence intensity [11, 27]: 37.5 MFI
fluorescence intensity [12, 28]: 19.8 MFI
fluorescence intensity [12, 29]: 20.5 MFI
fluorescence intensity [12, 30]: 19.5 MFI
fluorescence intensity [12, 31]: 19.5 MFI
fluorescence intensity [12, 24]: 20.5 MFI
fluorescence intensity [12, 25]: 20.2 MFI
fluorescence intensity [12, 26]: 22 MFI
fluorescence intensity [12, 27]: 24.5 MFI
fluorescence intensity [13, 28]: 22.8 MFI
fluorescence intensity [13, 29]: 21.5 MFI
fluorescence intensity [13, 30]: 20 MFI
fluorescence intensity [13, 31]: 20.8 MFI
fluorescence intensity [13, 24]: 19 MFI
fluorescence intensity [13, 25]: 21.8 MFI
fluorescence intensity [13, 26]: 21.8 MFI
fluorescence intensity [13, 27]: 22.5 MFI
fluorescence intensity [14, 28]: 15 MFI
fluorescence intensity [14, 29]: 16 MFI
fluorescence intensity [14, 30]: 16.5 MFI
fluorescence intensity [14, 31]: 15 MFI
fluorescence intensity [14, 24]: 16 MFI
fluorescence intensity [14, 25]: 17 MFI
fluorescence intensity [14, 26]: 18.2 MFI
fluorescence intensity [14, 27]: 53 MFI
fluorescence intensity [15, 28]: 26 MFI
fluorescence intensity [15, 29]: 26.8 MFI
fluorescence intensity [15, 30]: 27.2 MFI
fluorescence intensity [15, 31]: 26.5 MFI
fluorescence intensity [15, 24]: 27 MFI
fluorescence intensity [15, 25]: 28.5 MFI
fluorescence intensity [15, 26]: 37.5 MFI
fluorescence intensity [15, 27]: 206 MFI
fluorescence intensity [16, 28]: 26.5 MFI
fluorescence intensity [16, 29]: 26 MFI
fluorescence intensity [16, 30]: 26 MFI
fluorescence intensity [16, 31]: 25 MFI
fluorescence intensity [16, 24]: 26.5 MFI
fluorescence intensity [16, 25]: 26 MFI
fluorescence intensity [16, 26]: 29 MFI
fluorescence intensity [16, 27]: 36 MFI
fluorescence intensity [17, 28]: 18.5 MFI
fluorescence intensity [17, 29]: 19 MFI
fluorescence intensity [17, 30]: 19 MFI
fluorescence intensity [17, 31]: 19 MFI
fluorescence intensity [17, 24]: 17.5 MFI
fluorescence intensity [17, 25]: 18.5 MFI
fluorescence intensity [17, 26]: 20 MFI
fluorescence intensity [17, 27]: 40 MFI
fluorescence intensity [18, 28]: 19 MFI
fluorescence intensity [18, 29]: 19.5 MFI
fluorescence intensity [18, 30]: 19.5 MFI
fluorescence intensity [18, 31]: 19.5 MFI
fluorescence intensity [18, 24]: 19.2 MFI
fluorescence intensity [18, 25]: 22 MFI
fluorescence intensity [18, 26]: 25.2 MFI
fluorescence intensity [18, 27]: 43.8 MFI
fluorescence intensity [19, 28]: 17 MFI
fluorescence intensity [19, 29]: 15 MFI
fluorescence intensity [19, 30]: 16.5 MFI
fluorescence intensity [19, 31]: 17.5 MFI
fluorescence intensity [19, 24]: 16.8 MFI
fluorescence intensity [19, 25]: 19 MFI
fluorescence intensity [19, 26]: 19.5 MFI
fluorescence intensity [19, 27]: 66 MFI
fluorescence intensity [20, 28]: 23.5 MFI
fluorescence intensity [20, 29]: 24 MFI
fluorescence intensity [20, 30]: 23.5 MFI
fluorescence intensity [20, 31]: 24.5 MFI
fluorescence intensity [20, 24]: 24 MFI
fluorescence intensity [20, 25]: 24 MFI
fluorescence intensity [20, 26]: 25.5 MFI
fluorescence intensity [20, 27]: 30 MFI
fluorescence intensity [21, 28]: 12.5 MFI
fluorescence intensity [21, 29]: 13 MFI
fluorescence intensity [21, 30]: 13 MFI
fluorescence intensity [21, 31]: 14 MFI
fluorescence intensity [21, 24]: 13.5 MFI
fluorescence intensity [21, 25]: 13.5 MFI
fluorescence intensity [21, 26]: 15 MFI
fluorescence intensity [21, 27]: 21.5 MFI
fluorescence intensity [22, 28]: 10.5 MFI
fluorescence intensity [22, 29]: 12 MFI
fluorescence intensity [22, 30]: 11.5 MFI
fluorescence intensity [22, 31]: 12 MFI
fluorescence intensity [22, 24]: 12 MFI
fluorescence intensity [22, 25]: 13 MFI
fluorescence intensity [22, 26]: 13.5 MFI
fluorescence intensity [22, 27]: 29 MFI
fluorescence intensity [23, 28]: 16 MFI
fluorescence intensity [23, 29]: 16.8 MFI
fluorescence intensity [23, 30]: 16.5 MFI
fluorescence intensity [23, 31]: 16 MFI
fluorescence intensity [23, 24]: 15.5 MFI
fluorescence intensity [23, 25]: 18 MFI
fluorescence intensity [23, 26]: 23 MFI
fluorescence intensity [23, 27]: 104 MFI
